In paper PMC3125211:
These are yes or no findings as the source states them, for the method shown. Binding seen in cells or lysates may run through a third protein. Some results given as binding are weak or reduced against the parent protein; the word gives no strength.

By UniProt entry, the sequences of proteins in these tests, tags left out. Residues count along the entry.
UniProt P09055, residues 21-798: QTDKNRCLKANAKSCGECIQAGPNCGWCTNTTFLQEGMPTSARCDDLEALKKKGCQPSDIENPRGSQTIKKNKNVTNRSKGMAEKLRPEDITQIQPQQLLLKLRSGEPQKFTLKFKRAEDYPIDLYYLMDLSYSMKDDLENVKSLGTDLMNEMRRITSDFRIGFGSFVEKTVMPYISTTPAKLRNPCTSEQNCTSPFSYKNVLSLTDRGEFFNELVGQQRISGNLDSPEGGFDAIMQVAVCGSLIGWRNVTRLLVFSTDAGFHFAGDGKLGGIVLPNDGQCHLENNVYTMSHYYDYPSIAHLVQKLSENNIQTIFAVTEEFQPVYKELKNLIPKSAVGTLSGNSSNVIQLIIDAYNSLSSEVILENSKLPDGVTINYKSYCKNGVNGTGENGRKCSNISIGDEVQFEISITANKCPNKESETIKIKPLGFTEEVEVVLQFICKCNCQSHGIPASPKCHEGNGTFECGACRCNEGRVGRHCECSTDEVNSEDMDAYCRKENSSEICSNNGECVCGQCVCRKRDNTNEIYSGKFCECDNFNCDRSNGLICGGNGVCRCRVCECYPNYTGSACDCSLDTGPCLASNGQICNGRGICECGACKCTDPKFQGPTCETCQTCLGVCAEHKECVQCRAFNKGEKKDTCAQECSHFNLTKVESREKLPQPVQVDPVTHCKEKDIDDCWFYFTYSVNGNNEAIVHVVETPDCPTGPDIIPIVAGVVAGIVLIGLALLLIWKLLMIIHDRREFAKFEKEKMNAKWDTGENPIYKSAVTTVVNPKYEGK
UniProt P10852: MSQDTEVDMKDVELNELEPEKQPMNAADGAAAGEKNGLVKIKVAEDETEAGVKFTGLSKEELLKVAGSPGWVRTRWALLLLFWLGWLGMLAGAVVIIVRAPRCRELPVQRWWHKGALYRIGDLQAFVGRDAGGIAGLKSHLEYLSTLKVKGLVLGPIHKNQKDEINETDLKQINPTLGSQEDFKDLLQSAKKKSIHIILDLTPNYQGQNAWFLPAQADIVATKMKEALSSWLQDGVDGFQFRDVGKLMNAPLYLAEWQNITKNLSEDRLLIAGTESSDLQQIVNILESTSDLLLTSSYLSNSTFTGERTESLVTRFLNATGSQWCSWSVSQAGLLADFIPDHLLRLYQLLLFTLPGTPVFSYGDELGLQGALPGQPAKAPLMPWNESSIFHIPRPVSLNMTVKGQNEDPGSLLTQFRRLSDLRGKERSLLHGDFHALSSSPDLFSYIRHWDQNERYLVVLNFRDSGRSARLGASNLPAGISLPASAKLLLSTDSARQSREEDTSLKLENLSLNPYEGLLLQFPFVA

Legend:
[1] = target: endogenous integrin β1 of PST080 ES cells (mouse (endogenous in PST080 ES cells)) (UniProt P09055); assay: co-IP; 200 μg PST080 ES cell lysate in IP buffer; 4 μg anti-integrin β1 mAb 9EG7 or normal rat IgG with protein-G Sepharose, 4°C, 4 h; blots with anti-CD98hc N-20, anti-β galactosidase pAb or anti-integrin β1 pAb
[2] = target: FLAG-tagged integrin β1 (mouse) (UniProt P09055); assay: co-IP; lysate of 20 frog oocytes co-expressing FLAG-integrin β1 and CD98hc or ΔCD98hc-β geo; IP buffer (20 mM HEPES pH 7.5, 50 mM NaCl, 1% NP-40); ANTI-FLAG M2 affinity gel, 4 h; blots with anti-FLAG M2, anti-CD98hc N-20 or anti-β galactosidase pAb

| binding [1] | binding [2] | Substance |
| --- | --- | --- |
| binds | – | endogenous CD98 heavy chain of PST080 ES cells (from UniProt P10852 1-526) |
| – | binds | wild type CD98 heavy chain (CD98hc, Slc3a2) expressed in frog oocytes (from UniProt P10852 1-526) |
